We go through one molecule from US20250236644A1, “De Novo Designed Stimulus-responsive Two-state Hinge Proteins” (University of Washington, priority 2024, published 2025).

This series has as its system TAMRA-cs221B. As to the kind of experiment: FP titration and kinetics, hinge vs TAMRA-cs221B. It counts as binding. To be noted: absence of peptide; estimated from on rates assuming locked Y variant is 100% in state Y. How it is done:
All FP measurements were performed at 25° C. in 96-well plates (Corning 3686) using a Synergy Neo2™ plate reader and a 530/590 nm filter cube. The buffer for all FP measurements was 20 mM Tris-HCl, 100 mM NaCl, 0.05% v/v TWEEN20 at pH 8. Titrations were carried out in 96-well format, with 4 replicates per plate and 24 data points per titration (23 steps of two-fold serial dilution of hinges in the presence of TAMRA-labeled peptide at a constant concentration between 0.1 nM and 1 nM) with a final sample volume of 80 μl per well. Titration plates were incubated overnight at room temperature before measuring to ensure complete equilibration. The polarization signal S (as calculated by the Neo2™ software) was fitted to the equation
where fAB is the fraction of peptide that is bound, Atot is the absolute hinge concentration, Btot is the absolute peptide concentration, S0 is the baseline polarization of free peptide, and S1 is the change in polarization upon complex formation.
Fitting was performed using the scipy.optimize.curve_fit python function (53). Uncertainties for KD values are standard deviation errors calculated from the covariance matrix of the fits. In cases where the fitted KD was lower than the concentration of the labeled peptide Btot, we report the KD as KD<Btot. […]

B1: cs221: designed hinge protein, SEQ ID NO:10 (protein)
chain: MSGEMKEEIRRLAEELRERTKDEEVRELAREAARLAEESDDEEVKEVVKKALEAALKSKDEEVIRLLLLAAVLAAAAARSGSPEEKLEIAKKALELAMKSKDEEVIRLALLAAVLAARSDDEEVLKKVKEALEKAMESKDVEEIRERLREAVEVARAGSGSHHWGSTHHHHHH
As to B1, the “fraction of hinge in state X at equilibrium” value is reported as 99.5% and the “fraction of hinge in state Y at equilibrium” value is reported as 0.5%.
